In article PMC7256200, “Identifying a Molecular Mechanism That Imparts Species-Specific Toxicity to YoeB Toxins” (Frontiers in Microbiology, 2020):
Results are given in words; binding and its absence hold for the method and conditions named. Where a sequence is shown, tags or fusion partners need not be part of it.

Target: His-dihydrofolate reductase
Assay: BLI; both purified

B1: AtYoeB toxin (Atu2017) from Agrobacterium tumefaciens, GST-His tag removed (natural protein)
chain: MKLVWTLSSWDDYEFWQRTDARMVEKINDLIRNAKRTPFAGLGKPEPLKGDMAGYWSRRITAEHRFVYRVSGSGSEQRLEVIQCRFHYQ
notes: source: E. coli BL21 (DE3), purified (NiNTA, HRV3c PreScission cleavage, Superdex 75); not shown: GST, C-terminal, cleaved
binding: no binding
